Test results: patent US20180193475A1 (Novartis, published 2018)
These are yes or no findings as the source states them, for the method shown. Some results given as binding are weak or reduced against the parent protein; the word gives no strength. For part of these data: Sequences can lack the tags named with a protein. Each block holds one binder with its values, some of them ahead of it.

The chains behind the UniProt entries cited, without tags or fusion partners. Residues count along the entry.
UniProt P10721, residues 26-976: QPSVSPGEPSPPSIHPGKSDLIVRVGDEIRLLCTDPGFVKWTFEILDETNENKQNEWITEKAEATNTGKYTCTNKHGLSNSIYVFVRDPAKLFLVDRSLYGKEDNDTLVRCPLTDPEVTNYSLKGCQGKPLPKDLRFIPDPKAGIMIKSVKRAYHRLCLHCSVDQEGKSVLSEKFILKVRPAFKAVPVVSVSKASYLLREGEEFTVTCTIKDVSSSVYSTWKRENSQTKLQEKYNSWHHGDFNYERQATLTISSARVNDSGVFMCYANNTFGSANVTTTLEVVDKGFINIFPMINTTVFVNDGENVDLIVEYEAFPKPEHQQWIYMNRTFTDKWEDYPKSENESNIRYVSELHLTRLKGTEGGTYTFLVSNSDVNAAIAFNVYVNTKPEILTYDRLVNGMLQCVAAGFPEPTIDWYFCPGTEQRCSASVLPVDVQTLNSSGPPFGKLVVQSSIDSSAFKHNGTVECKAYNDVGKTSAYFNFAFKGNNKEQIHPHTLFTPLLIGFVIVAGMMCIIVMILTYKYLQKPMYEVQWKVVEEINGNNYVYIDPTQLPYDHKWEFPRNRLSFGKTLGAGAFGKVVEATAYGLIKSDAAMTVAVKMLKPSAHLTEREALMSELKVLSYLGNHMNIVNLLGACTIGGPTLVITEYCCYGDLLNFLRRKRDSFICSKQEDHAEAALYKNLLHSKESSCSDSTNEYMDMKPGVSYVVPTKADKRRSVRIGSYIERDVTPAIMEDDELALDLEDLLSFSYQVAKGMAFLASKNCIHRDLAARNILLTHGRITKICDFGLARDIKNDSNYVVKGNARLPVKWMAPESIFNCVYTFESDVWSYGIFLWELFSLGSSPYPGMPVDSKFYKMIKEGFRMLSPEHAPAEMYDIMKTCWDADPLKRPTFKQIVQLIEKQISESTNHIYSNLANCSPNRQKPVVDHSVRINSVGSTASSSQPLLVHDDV

What was measured:
[1] = target: cKIT on the surface of GIST-T1 cells (UniProt P10721); assay: flow cytometry on GIST-T1 cells, 10 ug/ml antibody, temperature shift
[2] = target: T1, Mouse cKIT ECD, C-terminal 6x His (Sino Biological Inc, catalog number 50530-M08H) (mouse) (UniProt P05532); assay: SPR (Biacore 2000)
T1 sequence (looked up): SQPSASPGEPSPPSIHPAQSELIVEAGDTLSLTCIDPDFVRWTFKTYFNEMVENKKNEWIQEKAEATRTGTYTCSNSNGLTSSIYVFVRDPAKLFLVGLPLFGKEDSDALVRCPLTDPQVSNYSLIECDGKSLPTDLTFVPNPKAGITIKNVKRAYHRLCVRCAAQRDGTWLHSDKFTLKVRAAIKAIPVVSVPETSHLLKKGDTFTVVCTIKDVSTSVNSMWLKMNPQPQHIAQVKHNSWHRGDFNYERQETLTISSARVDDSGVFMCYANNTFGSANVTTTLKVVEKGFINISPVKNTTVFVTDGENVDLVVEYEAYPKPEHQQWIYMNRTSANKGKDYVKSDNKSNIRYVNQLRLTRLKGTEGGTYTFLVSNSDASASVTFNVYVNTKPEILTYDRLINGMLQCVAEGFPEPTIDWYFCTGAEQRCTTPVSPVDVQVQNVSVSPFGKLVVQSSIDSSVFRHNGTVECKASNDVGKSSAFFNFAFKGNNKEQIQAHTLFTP

binding [1]: binds
B1: NEG085 (antibody, human IgG1, kappa, V domains shown)
VH: EVQLVESGGGLVQPGGSLRLSCAASGFAFSGYYMAWVRQAPGKGLEWVANINYPGSSTYYLDSVKGRFTISRDNAKNSLYLQMNSLRAEDTAVYYCARGDYYGTTYWYFDVWGQGTTVTVSS
VL: DIQMTQSPSSLSASVGDRVTITCRASQSISSYLNWYQQKPGKAPKLLIYYTSRLQSGVPSRFSGSGSGTDFTLTISSLQPEDFATYYCQQGRRLWSFGGGTKVEIKR

binding [2]: binds
binding [1]: binds
B2: 20376 (antibody, human IgG1, lambda, V domains shown)
VH: QVQLVQSGAEVKKPGSSVKVSCKASGGTFSSYAISWVRQAPGQGLEWMGGIIPMSGRTTYAQKFQGRVTITADESTSTAYMELSSLRSEDTAVYYCARDYGPEAPDYGQSTSYFWYYAFDPWGQGTLVTVSS
VL: DIELTQPPSVSVSPGQTASITCSGDNIPSYFVHWYQQKPGQAPVLVIYDDNDRPSGIPERFSGSNSGNTATLTISGTQAEDEADYYCSSWDQDTVVFGGGTKLTVLG
